In publication doi:10.1101/806364:
No constants are given. Whether binding was seen depends on the method and setting. Some entries that bind do so weakly or less than the wild type. Blank lines part the entries; values can stand above or below the molecule they belong to.

Sequences of proteins named here, by UniProt entry; tags and fusion partners are left off.
UniProt P55884: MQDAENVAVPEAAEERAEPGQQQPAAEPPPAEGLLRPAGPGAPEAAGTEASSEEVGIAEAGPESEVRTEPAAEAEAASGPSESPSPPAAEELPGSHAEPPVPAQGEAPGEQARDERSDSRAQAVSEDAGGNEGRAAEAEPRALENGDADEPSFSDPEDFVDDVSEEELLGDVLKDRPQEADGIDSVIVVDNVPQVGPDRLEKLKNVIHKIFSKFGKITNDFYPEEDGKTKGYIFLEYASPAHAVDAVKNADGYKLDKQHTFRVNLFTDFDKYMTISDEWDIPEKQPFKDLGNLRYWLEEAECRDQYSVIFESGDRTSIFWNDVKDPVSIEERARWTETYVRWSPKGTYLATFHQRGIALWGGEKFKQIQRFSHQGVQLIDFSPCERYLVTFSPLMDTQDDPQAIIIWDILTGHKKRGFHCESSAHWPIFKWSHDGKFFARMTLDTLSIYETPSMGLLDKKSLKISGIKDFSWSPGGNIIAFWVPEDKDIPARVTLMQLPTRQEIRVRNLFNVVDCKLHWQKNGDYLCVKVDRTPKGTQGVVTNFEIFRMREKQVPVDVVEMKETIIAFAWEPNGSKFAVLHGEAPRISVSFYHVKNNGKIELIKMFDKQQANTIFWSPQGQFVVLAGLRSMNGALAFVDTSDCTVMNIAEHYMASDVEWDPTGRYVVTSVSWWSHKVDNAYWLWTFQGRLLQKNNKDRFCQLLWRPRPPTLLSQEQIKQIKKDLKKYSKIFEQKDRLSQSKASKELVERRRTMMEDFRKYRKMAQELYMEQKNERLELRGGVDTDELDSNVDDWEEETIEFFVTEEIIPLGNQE
UniProt P05198: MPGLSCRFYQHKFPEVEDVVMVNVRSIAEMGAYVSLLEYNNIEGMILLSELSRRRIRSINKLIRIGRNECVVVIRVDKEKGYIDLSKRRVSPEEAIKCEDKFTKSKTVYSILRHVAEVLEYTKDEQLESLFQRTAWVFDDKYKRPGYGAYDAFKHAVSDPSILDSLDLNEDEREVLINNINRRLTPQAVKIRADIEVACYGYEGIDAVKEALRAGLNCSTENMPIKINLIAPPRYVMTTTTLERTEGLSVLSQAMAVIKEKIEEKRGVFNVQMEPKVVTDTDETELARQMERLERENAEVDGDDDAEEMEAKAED
UniProt P06730: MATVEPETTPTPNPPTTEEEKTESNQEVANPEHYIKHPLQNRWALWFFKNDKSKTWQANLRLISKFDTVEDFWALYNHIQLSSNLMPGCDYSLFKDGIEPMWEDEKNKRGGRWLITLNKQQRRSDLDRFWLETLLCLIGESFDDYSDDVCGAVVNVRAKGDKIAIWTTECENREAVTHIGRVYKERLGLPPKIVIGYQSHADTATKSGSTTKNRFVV

Experiments:
Assay in all cases: selective 80S ribosome footprinting
[1] = target: eIF3B (human (endogenous in HeLa)) (UniProt P55884)
[2] = target: eIF2S1 (human (endogenous in HeLa)) (UniProt P05198)
[3] = target: eIF4E (human (endogenous in HeLa)) (UniProt P06730)

- binding [1]: binds
Molecule: eIF4G1 (nascent chain on translating 80S ribosomes) (from UniProt Q04637-1 1-1599)

- binding [2]: binds
Molecule: eIF3A (nascent chain on translating 80S ribosomes) (from UniProt Q14152-1 1-1382)

- binding [3]: binds
B1: eIF4ENIF1 (nascent chain on translating 80S ribosomes) (protein, UniProt Q9NRA8-1 1-985)
chain: MDRRSMGETESGDAFLDLKKPPASKCPHRYTKEELLDIKELPHSKQRPSCLSEKYDSDGVWDPEKWHASLYPASGRSSPVESLKKELDTDRPSLVRRIVDPRERVKEDDLDVVLSPQRRSFGGGCHVTAAVSSRRSGSPLEKDSDGLRLLGGRRIGSGRIISARTFEKDHRLSDKDLRDLRDRDRERDFKDKRFRREFGDSKRVFGERRRNDSYTEEEPEWFSAGPTSQSETIELTGFDDKILEEDHKGRKRTRRRTASVKEGIVECNGGVAEEDEVEVILAQEPAADQEVPRDAVLPEQSPGDFDFNEFFNLDKVPCLASMIEDVLGEGSVSASRFSRWFSNPSRSGSRSSSLGSTPHEELERLAGLEQAILSPGQNSGNYFAPIPLEDHAENKVDILEMLQKAKVDLKPLLSSLSANKEKLKESSHSGVVLSVEEVEAGLKGLKVDQQVKNSTPFMAEHLEETLSAVTNNRQLKKDGDMTAFNKLVSTMKASGTLPSQPKVSRNLESHLMSPAEIPGQPVPKNILQELLGQPVQRPASSNLLSGLMGSLEPTTSLLGQRAPSPPLSQVFQTRAASADYLRPRIPSPIGFTPGPQQLLGDPFQGMRKPMSPITAQMSQLELQQAALEGLALPHDLAVQAANFYQPGFGKPQVDRTRDGFRNRQQRVTKSPAPVHRGNSSSPAPAASITSMLSPSFTPTSVIRKMYESKEKSKEEPASGKAALGDSKEDTQKASEENLLSSSSVPSADRDSSPTTNSKLSALQRSSCSTPLSQANRYTKEQDYRPKATGRKTPTLASPVPTTPFLRPVHQVPLVPHVPMVRPAHQLHPGLVQRMLAQGVHPQHLPSLLQTGVLPPGMDLSHLQGISGPILGQPFYPLPAASHPLLNPRPGTPLHLAMVQQQLQRSVLHPPGSGSHAAAVSVQTTPQNVPSRSGLPHMHSQLEHRPSQRSSSPVGLAKWFGSDVLQQPLPSMPAKVISVDELEYRQ
